The source of these data is patent publication US20240189287A1, “PERIPHERALLY RESTRICTED CB1 RECEPTOR BLOCKERS AND USES THEREOF” (BIONANOSIM (BNS) LTD, priority 2021, published 2024).

The test system of this assay is HepG2 Cells. Description: Cell Viability Assay in HepG2 Cells at 72 h. The note with it: HepG2, 72 h; read-out: Absolute IC50. It is filed as cell-based, human. The method, then: The liver plays a central role in transforming and clearing chemicals, and therefore is susceptible to toxicity of these agents. BNS808, BNS822 and other selected compounds were tested in the HepG2 assay using […] to evaluate cytotoxicity.

Molecules are shown by their SMILES.

As usually defined, the IC50 is the concentration that gives 50% inhibition. Consider `CN[C@@H]1C[C@H]2O[C@@](C)([C@@H]1OC)n1c3ccccc3c3c4c(c5c6ccccc6n2c5c31)C(=O)NC4` [Staurosporine, reference compound], for which the IC50 stood at 80 nM.
